Data as given in PubChem BioAssay AID743454 (Peter MacCallum Cancer Centre, 2014).
Assay: 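Knock-downs lowering viability or raising caspase 3/7 activity in vorinostat-treated resistant cells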 (primary screen). System: human HCT116-VR colon cancer cells, selected for vorinostat resistance. Reagents: siRNA pool against human genes, 40 nM siRNA pool. Time to read-out: vorinostat for 24 h, read-out about 72 h after transfection. Treatment: vorinostat at 2.5 µM final. Detection: 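Cell viability by CellTiter-Fluor and caspase 3/7 activity by luminescence, each scaled to mock wells per plate, duplicates averaged, then robust z-scored over all plates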. Scale: viability robust z-score: higher = more viable cells than screen typical; caspase robust z-score: higher = more caspase 3/7 activity than screen typical. Active means: 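a knock-down is a hit when classed RV1 or RV2 for lowered viability, or CA1 or CA2 for caspase activation; those lethal without drug were dropped; hits were retested singly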.
This is a random part of about 18,000 deposited reagents. 450 of them (2.5%) count as active. 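Single biological run; no consistent viability z cut-off exists, so the class columns, not z-scores, define the calls.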 Unmarked entries are inactive.

| gene knocked down | viability hit class | caspase hit class | viability robust z-score | caspase robust z-score |
| --- | --- | --- | --- | --- |
| HMGB1P1 (GeneID 10357) | no change | no change | 1.2 | -0.18 |
| POU2F1 (GeneID 5451) | no change | no change | 1.33 | -0.94 |
| A1CF (GeneID 29974) | no change | no change | 1.4 | -0.16 |
| ZNF669 (GeneID 79862) | no change | no change | -0.45 | 1.21 |
| INTS12 (GeneID 57117) | no change | no change | -1.99 | 3.62 |
| IGFL4 (GeneID 444882) | no change | no change | 1.09 | 0.8 |
| IMPA2 (GeneID 3613) | no change | no change | 0.75 | 4.38 |
| DIS3 (GeneID 22894) | no change | no change | -0.1 | -0.36 |
| WASH5P (GeneID 375690) | no change | no change | -0.55 | -0.4 |
| KCNS3 (GeneID 3790) | no change | no change | -0.2 | -0.06 |
| ORC5 (GeneID 5001) | no change | no change | 0.7 | -0.54 |
| H2AC11 (GeneID 8969) | no change | no change | -0.26 | 3.19 |
| PGF (GeneID 5228) | no change | no change | 0.12 | -0.88 |
| AKIP1 (GeneID 56672) | no change | no change | 0.68 | 0.06 |
| ATP8A2 (GeneID 51761) | no change | no change | -1.15 | -0.84 |
| TCTN2 (GeneID 79867) | no change | no change | 0.85 | -0.34 |
| APOL5 (GeneID 80831) | no change (active) | CA1 (caspase activation) | -0.53 | 5.73 |
| KNDC1 (GeneID 85442) | no change | no change | -0.05 | -0.09 |
| AFF4 (GeneID 27125) | no change | no change | -0.22 | 1.46 |
| GATA1 (GeneID 2623) | no change (active) | CA2 (caspase activation) | -2.66 | 7.6 |
| DNAH10 (GeneID 196385) | no change | no change | -0.08 | 0.6 |
| BMX (GeneID 660) | no change | no change | -0.48 | -0.12 |
| SYP (GeneID 6855) | no change | no change | -0.01 | -0.94 |
| LAMTOR2 (GeneID 28956) | RV2 (reduced viability) (active) | no change | -5.54 | 2.19 |
| CPSF1 (GeneID 29894) | no change (active) | CA1 (caspase activation) | -0.11 | 5.18 |
| ZNF414 (GeneID 84330) | no change | no change | 0.12 | 1.04 |
| SLC48A1 (GeneID 55652) | no change | no change | -1.23 | 0.6 |
| MRPL1 (GeneID 65008) | no change | no change | 0.94 | -0.64 |
| ABCC12 (GeneID 94160) | no change | no change | -0.02 | -0.21 |
| SOX8 (GeneID 30812) | no change | no change | -0.7 | 2.82 |
| GOLGA2P5 (GeneID 55592) | no change | no change | -1.52 | -1.14 |
| PDZD9 (GeneID 255762) | no change | no change | -1.01 | -0.05 |
| AGER (GeneID 177) | no change | no change | 1.24 | 3.25 |
| DHCR24 (GeneID 1718) | no change | no change | -1.71 | -0.22 |
| SLC22A14 (GeneID 9389) | no change | no change | -0.03 | -0.81 |
| ZNF77 (GeneID 58492) | no change | no change | 0.92 | -0.71 |
| GEMIN5 (GeneID 25929) | no change | no change | 1.22 | -0.92 |
| CTPS2 (GeneID 56474) | no change | no change | -0.1 | 0.7 |
| RAB35 (GeneID 11021) | no change | no change | 1 | 1.96 |
